Values quoted from earlier work, collected in patent US5698535A, “SIN-1A cyclodextrin inclusion complexes” (priority 1994, dated 1997).
At least one compound was matched to its structure with a doubt left.

Settings: degradation product; cited from earlier work

N#CC=NN1CCOCC1 [SIN-1C, cyanomethylene-amino-morpholine]
biological activity: biologically inactive
